Reference: PubChem BioAssay AID1259308 (NCATS, 2017)
Aim: 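Knock-downs that increase output of a recombinant reporter protein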 (primary screen). System: human HEK293 embryonic kidney cells stably expressing firefly luciferase (HEK-CMV-Luc2-Hygro). Knock-down reagent: single siRNA against human genes, 0.8 pmol siRNA per well. Duration: 72 h. Measurement: 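Reporter luminescence and viable-cell signal on separate replicate plates, given as percent of non-targeting control and median/MAD z-scores, plus per-cell luciferase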. Direction: total luciferase, z-score: higher = more reporter protein produced. Active means: 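An siRNA counts as active if its total luciferase robust z-score exceeds 3; genes with two or more such siRNAs out of three were retested with fresh siRNAs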. Calls: active = raised luciferase; inactive = no rise.
This is one part, drawn at random, of about 59,000 reagents tested. In the full data, about 1,510 (2.6%) are marked active. 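Calls use total luciferase alone and ignore viability, so some active siRNAs may act by altering cell number.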 Reagents against one gene are numbered here. Further read-outs or replicates are left out here. No sequences are given here.

HEPN1 #1 → total luciferase, z-score: 0.537; call: inactive
HEPN1 #2 → total luciferase, z-score: 1.66; call: inactive
HEPN1 #3 → total luciferase, z-score: 0.295; call: inactive
PCDHB3 #1 → total luciferase, z-score: -0.116; call: inactive
PCDHB3 #2 → total luciferase, z-score: 2.43; call: inactive
PCDHB3 #3 → total luciferase, z-score: -0.33; call: inactive
GAS2 #1 → total luciferase, z-score: -0.807; call: inactive
GAS2 #2 → total luciferase, z-score: 0.27; call: inactive
GAS2 #3 → total luciferase, z-score: 1.37; call: inactive
SH3RF2 #1 → total luciferase, z-score: 0.211; call: inactive
SH3RF2 #2 → total luciferase, z-score: 1.4; call: inactive
SH3RF2 #3 → total luciferase, z-score: -1.13; call: inactive
SFI1 #1 → total luciferase, z-score: 1.12; call: inactive
SFI1 #2 → total luciferase, z-score: 0.344; call: inactive
SFI1 #3 → total luciferase, z-score: -0.174; call: inactive
RPL29P32 #1 → total luciferase, z-score: -0.694; call: inactive
RPL29P32 #2 → total luciferase, z-score: -1.61; call: inactive
RPL29P32 #3 → total luciferase, z-score: 1.9; call: inactive
TMEM160 #1 → total luciferase, z-score: -1.29; call: inactive
TMEM160 #2 → total luciferase, z-score: 3.84; call: active
TMEM160 #3 → total luciferase, z-score: -1.14; call: inactive

2 entries already listed, arranged by “total luciferase, z-score”, lowest first.
PCDHB3 #1 → total luciferase, z-score: -0.116; call: inactive
PCDHB3 #2 → total luciferase, z-score: 2.43; call: inactive
